In test [1] the target is T1, human Flag-TRMT10C K173Q (M1) (human) (UniProt Q7L0Y3).
T1 sequence: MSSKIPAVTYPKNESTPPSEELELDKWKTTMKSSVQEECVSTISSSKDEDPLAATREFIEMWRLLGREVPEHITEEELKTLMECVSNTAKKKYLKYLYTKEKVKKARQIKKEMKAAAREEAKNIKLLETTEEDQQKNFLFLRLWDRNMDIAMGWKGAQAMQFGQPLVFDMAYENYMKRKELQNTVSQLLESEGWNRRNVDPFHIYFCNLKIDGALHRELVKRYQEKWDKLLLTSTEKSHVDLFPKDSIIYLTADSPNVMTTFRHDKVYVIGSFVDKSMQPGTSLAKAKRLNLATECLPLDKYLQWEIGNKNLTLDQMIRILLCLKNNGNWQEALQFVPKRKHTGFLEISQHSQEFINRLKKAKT
Briefly: co-IP; anti-FLAG precipitation of WT or mutant Flag-TRMT10C from transfected AC16 and H9c2 cells; normal conditions, hypoxia, hypoxia with CPT1A overexpression; western blot for KPNA2, KPNA3, KPNA4.

Amino acid sequences for entries named in this document (tags omitted). Residues count along the entry.
UniProt B5DFG1, residues 78-580: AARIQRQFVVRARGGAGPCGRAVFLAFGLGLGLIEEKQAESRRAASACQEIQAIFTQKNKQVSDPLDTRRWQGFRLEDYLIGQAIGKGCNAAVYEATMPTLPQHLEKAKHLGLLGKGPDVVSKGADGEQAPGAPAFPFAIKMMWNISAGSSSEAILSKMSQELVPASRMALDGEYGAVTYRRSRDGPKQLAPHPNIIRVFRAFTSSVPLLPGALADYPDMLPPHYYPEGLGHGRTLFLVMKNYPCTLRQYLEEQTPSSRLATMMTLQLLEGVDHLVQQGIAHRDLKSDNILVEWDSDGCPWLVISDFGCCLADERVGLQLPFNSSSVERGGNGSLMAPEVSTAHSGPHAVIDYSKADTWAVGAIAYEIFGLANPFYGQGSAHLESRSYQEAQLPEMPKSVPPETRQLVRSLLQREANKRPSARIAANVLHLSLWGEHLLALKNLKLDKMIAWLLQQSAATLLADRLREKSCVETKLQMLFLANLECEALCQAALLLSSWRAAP
UniProt O00629: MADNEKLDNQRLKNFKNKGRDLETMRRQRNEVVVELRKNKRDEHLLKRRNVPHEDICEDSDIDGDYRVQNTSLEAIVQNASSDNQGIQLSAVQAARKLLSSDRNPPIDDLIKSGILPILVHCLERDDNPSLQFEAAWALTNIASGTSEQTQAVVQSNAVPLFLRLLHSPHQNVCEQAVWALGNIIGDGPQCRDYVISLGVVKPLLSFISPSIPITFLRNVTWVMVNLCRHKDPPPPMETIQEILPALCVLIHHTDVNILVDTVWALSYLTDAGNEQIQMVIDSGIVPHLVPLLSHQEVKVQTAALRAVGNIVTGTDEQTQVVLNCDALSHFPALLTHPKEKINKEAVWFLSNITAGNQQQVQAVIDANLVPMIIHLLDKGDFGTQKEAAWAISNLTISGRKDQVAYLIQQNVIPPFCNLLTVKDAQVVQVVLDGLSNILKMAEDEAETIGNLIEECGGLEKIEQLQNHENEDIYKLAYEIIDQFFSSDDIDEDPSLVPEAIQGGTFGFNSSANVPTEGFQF
UniProt Q9JK66: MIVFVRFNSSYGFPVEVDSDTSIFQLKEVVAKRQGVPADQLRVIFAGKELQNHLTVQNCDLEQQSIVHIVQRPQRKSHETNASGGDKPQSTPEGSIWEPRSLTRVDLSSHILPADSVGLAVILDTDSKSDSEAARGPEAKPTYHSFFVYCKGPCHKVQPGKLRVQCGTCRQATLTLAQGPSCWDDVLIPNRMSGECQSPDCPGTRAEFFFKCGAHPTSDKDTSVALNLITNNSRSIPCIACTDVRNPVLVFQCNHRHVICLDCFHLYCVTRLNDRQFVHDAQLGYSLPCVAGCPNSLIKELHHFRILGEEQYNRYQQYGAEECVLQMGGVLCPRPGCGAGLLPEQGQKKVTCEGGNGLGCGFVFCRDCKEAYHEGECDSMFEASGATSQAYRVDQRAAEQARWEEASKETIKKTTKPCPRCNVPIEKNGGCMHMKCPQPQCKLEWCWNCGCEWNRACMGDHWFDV

Test [2] concerns the target T2, human Flag-TRMT10C K173Q and K325Q (M3) (human) (UniProt Q7L0Y3).
T2 sequence: T1 sequence with K286Q
The description is as above.

For test [3], the target named is T3, human Flag-TRMT10C K325Q (M2) (human) (UniProt Q7L0Y3).
T3 sequence: T1 sequence with Q134K, K286Q
The test is described as above.

Test [4] concerns the target PINK1 (H9c2 cells) (rat (endogenous in H9c2)) (UniProt B5DFG1). Briefly: co-IP; anti-PINK1 precipitation from AC16 and H9c2 lysates; hypoxia, with TAFAZZIN and/or NLRX1 overexpression or TRMT10C knockdown; western blot for Parkin.

Numbering of substitutions follows the chain as printed. Results are given in words; binding and its absence hold for the method and conditions named. In cells and extracts the contact can be indirect. Some binding calls cover weakened binding; strength is not graded here. For some of these results: Where a sequence is shown, tags or fusion partners need not be part of it.

Turning to “KPNA4 (AC16 cells) (from UniProt O00629 1-521)”, the binding result in test [1], in test [2] and in test [3] was “binds” throughout.
In the case of “Parkin (H9c2 cells) (from UniProt Q9JK66 1-465)”, the binding result in test [4] is recorded as “binds”.

The values are drawn from paper PMC12080399.
